# Reference: PubChem BioAssay AID445 (National Center for Advancing Translational Sciences (NCATS), 2006)
# The list shows a part of the results. The main result of the screen is listed elsewhere. These columns were measured beside it and carry no call. The list favours compounds with an active or inconclusive main result. Potencies come from curve fits of mixed quality, noted in brackets.
# Assay: IkB Signaling
# Conditions: ABC-DLBCL IkBa-CBG/CBR dual luciferase ratio (green luciferase fused to IkBa over red control in OCI-Ly3 lymphoma cells), 4 h
# Method in brief: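 In this assay, an IκBα–CBG68 fusion accumulates when IKK-driven degradation is blocked; native CBR normalizes for cell number. OCI-Ly3 cells were treated 4 h with compound and doxycycline, then green and red light read after Chroma-Glo addition.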
# [1] = measured here: control luc red channel unless noted
# [2] = measured here: IkB-luc green channel
# [3] = measured here: control luc red channel
smiles,measurement,setting,value
CCOc1ccccc1NC(=O)c1nn(-c2ccc(OC)cc2)c(=O)c2c1c1ccccc1n2C,AC50,[1],"0.1 µM [rising, full curve, poor fit]"
O=C(c1ccco1)N1CCN(c2ncnc3c(-c4ccccc4)nsc23)CC1,AC50,[1],"39.8 µM [falling, single point]"
Cc1nc(SCCOc2ccc(Cl)cc2)[nH]c(=O)c1Cc1ccccc1,AC50,[1],"0.316 µM [falling, full curve, poor fit]"
COc1cccc(-n2cc(C(=O)Nc3ccccc3C(N)=O)c3ccccc3c2=O)c1,AC50,[1],"20 µM [falling, single point]"
CCOc1ccc(NC(=O)Cn2c(=O)n(Cc3ccccc3)c(=O)c3c4c(sc32)CN(C(C)=O)CC4)cc1,AC50,[1],"39.8 µM [falling, single point]"
Cc1ccccc1CNC(=O)Cn1cc2c(n1)-c1c(oc(C(=O)N3CCCC3)c1C)CC2,AC50,[1],"25.1 µM [falling, partial curve]"
COc1ccc2nc(NC(=O)c3nc(SCc4cccc(C)c4)ncc3Cl)sc2c1,AC50,[1],"6.31 µM [rising, single point]"
COc1cc(OC)cc(C(=O)Nc2cccc(NC(C)=O)c2)c1,AC50,[1],"12.6 µM [falling, partial curve]"
CC1CCCCN1S(=O)(=O)c1ccc2[nH]c(=O)cc(C(=O)NCCc3ccc(Cl)cc3)c2c1 (configuration not stated),AC50,[1],"3.16 µM [rising, single point]"
COC(=O)c1c(NC(=O)c2c(OC)cccc2OC)sc2c1CCCC2,AC50,[1],"20 µM [falling, single point]"
CC(=O)c1cccc(Nc2ncnc3c2cnn3-c2cccc(Cl)c2)c1,AC50,[1],"0.316 µM [falling, full curve, poor fit]"
COc1cccc(NC(=O)CC2Oc3ccccc3NC2=O)c1 (configuration not stated),AC50,[1],"39.8 µM [falling, single point]"
COc1cccc(NC(=O)c2oc3ccc(S(=O)(=O)N4CCOCC4)cc3c2C)c1,AC50,[1],"12.6 µM [falling, partial curve]"
CC(C)OCCCNC(=O)CN1C(=O)CSc2ccc(S(=O)(=O)N3CCOCC3)cc21,AC50,[1],"0.126 µM [rising, full curve, poor fit]"
CCOC(=O)c1[nH]c(C)c(C(=O)Nc2ccc(F)cc2)c1C,AC50,[2],"39.8 µM [rising, single point]"
same,AC50,[3],"31.6 µM [rising, single point]"
CC(=O)Nc1c(C(=O)Nc2ccccc2F)oc2ccccc12,AC50,[1],"2.51 µM [falling, full curve, poor fit]"
CC(C)CNC(=O)NC1C(NC(=O)NCC(C)C)N(C)C(=O)N1C (configuration not stated),AC50,[1],"0.0631 µM [falling, full curve]"
COc1cc(-c2nc3cnccn3c2Nc2ccc(C(C)C)cc2)ccc1O,AC50,[1],"15.8 µM [falling, partial curve]"
COc1ccc(OCc2nnc3n2N=C(c2ccc(OC)cc2)CS3)cc1,AC50,[1],"25.1 µM [falling, single point]"
Cc1ccccc1NC(=O)CSc1nnc(-c2cccc(Cl)c2)o1,AC50,[1],"5.01 µM [falling, partial curve]"
COc1ccc(CNC(=O)C(C)n2nc(C)c3sc4ccccc4c3c2=O)cc1OC (configuration not stated),AC50,[1],"25.1 µM [falling, single point]"
Cc1csc2nc(-c3cccc(NC(=O)c4ccccc4F)c3)cn12,AC50,[1],"39.8 µM [falling, single point]"
CC(=O)c1c(C)oc2ccc(N(C(=O)c3ccncc3)S(=O)(=O)c3ccc(F)cc3C)cc12,AC50,[1],"10 µM [falling, partial curve]"
Cc1cccc(C(=O)Nc2sc3c(c2C(=O)O)CCCC3)c1,AC50,[1],"0.00316 µM [falling, full curve]"
CCCOc1ccc(CNC(=O)Cn2c(=O)oc3ccccc32)cc1,AC50,[1],"39.8 µM [falling, single point]"
COc1cccc(CNC(=O)c2cccc(NC(=O)c3nsc4ccccc34)c2)c1,AC50,[1],"39.8 µM [falling, single point]"
CCOc1ccc(OCC)c(NC(=O)CSc2nc3c(c(=O)n(C)c(=O)n3C)n2C(C)C)c1,AC50,[1],"3.16 µM [falling, single point]"
CCCc1cc2c(=O)c(-c3ccccn3)c(C)oc2cc1O,AC50,[1],"15.8 µM [rising, partial curve]"
Cc1ccc(CNC(=O)c2cnn(-c3ccc(F)cc3F)c2C2CCN(C(=O)OC(C)(C)C)CC2)cc1,AC50,[1],"10 µM [falling, partial curve]"
COc1ccc(NS(=O)(=O)c2ccc3c(c2)n(C)c(=O)c(=O)n3C)cc1Cl,AC50,[1],"15.8 µM [falling, partial curve]"
O=C(c1ccco1)N(CCCN1CCOCC1)c1nc(-c2ccc(F)cc2)cs1,AC50,[1],"25.1 µM [falling, single point]"
COc1ccc(-c2nc(SCC(=O)NCC3CCCO3)c(-c3ccc(Cl)cc3)[nH]2)cc1 (configuration not stated),AC50,[1],"3.98 µM [falling, partial curve]"
Cc1c(Cl)ccc2sc(NC(=O)c3ccc(S(=O)(=O)N4CCCC4)cc3)nc12,AC50,[1],"0.398 µM [falling, full curve]"
O=C(NC1CCCCC1)Sc1ccc(Cl)cc1,AC50,[2],"39.8 µM [rising, single point]"
same,AC50,[3],"39.8 µM [rising, single point]"
CCCNC(=O)CCn1nc(-c2ccc(C)cc2)c2ccccc2c1=O,AC50,[1],"39.8 µM [falling, single point]"
Cc1nn(Cc2ccccc2)c(C)c1NC(=O)c1cc2nc(-c3ccco3)cc(C(F)(F)F)n2n1,AC50,[1],"20 µM [falling, single point]"
c1ccc(CSc2nnc(-c3ccco3)n2Cc2ccccc2)cc1,AC50,[1],"15.8 µM [falling, partial curve]"
Cc1ccc2ncc(C(=O)Nc3cccc(C(F)(F)F)c3)c(=O)n2c1,AC50,[1],"3.98 µM [rising, full curve]"
COc1cc(C(=O)Nc2cccc(OCc3cc(=O)n4c(C)csc4n3)c2)cc(OC)c1OC,AC50,[1],"15.8 µM [falling, partial curve]"
COc1ccc(S(=O)(=O)N2CCC(c3nnc(-c4ccccc4C)o3)CC2)c(OC)c1,AC50,[1],"39.8 µM [falling, single point]"

# Pulled one by one from the list above, two records:
smiles,measurement,setting,value
CC(C)OCCCNC(=O)CN1C(=O)CSc2ccc(S(=O)(=O)N3CCOCC3)cc21,AC50,[1],"0.126 µM [rising, full curve, poor fit]"
COc1ccc(CNC(=O)C(C)n2nc(C)c3sc4ccccc4c3c2=O)cc1OC (configuration not stated),AC50,[1],"25.1 µM [falling, single point]"
